Test results taken from PMC4488580.
Results are given in words; binding and its absence hold for the method and conditions named. In cells and extracts the contact can be indirect. Some entries that bind do so weakly or less than the wild type. Tags and fused reporters may be left off the sequences shown.

Molecular target: T1, RND3 flag tagged protein (pCMV-Flag-RhoE) expressed in U87 cells (human) (UniProt P61587)
T1 sequence: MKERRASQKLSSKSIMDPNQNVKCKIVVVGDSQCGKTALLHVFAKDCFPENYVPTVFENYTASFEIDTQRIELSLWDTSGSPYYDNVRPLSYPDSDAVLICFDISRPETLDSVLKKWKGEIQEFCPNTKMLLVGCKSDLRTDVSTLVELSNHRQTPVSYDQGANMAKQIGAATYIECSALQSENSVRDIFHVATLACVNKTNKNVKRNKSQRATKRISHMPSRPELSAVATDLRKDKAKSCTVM
Assay: co-IP; U87 cells transfected with RND3-Flag or Flag; lysis in 20 mM Tris-HCl pH 7.4, 150 mM NaCl, 1 mM EGTA, 1 mM EDTA, 1% Triton X-100; lysates incubated with 2 ug monoclonal anti-Flag (Sigma M2) for 1 h at 4°C, collected on protein G-Sepharose, western blot

B1: MCM3 (protein, UniProt P25205 1-808)
chain: MAGTVVLDDVELREAQRDYLDFLDDEEDQGIYQSKVRELISDNQYRLIVNVNDLRRKNEKRANRLLNNAFEELVAFQRALKDFVASIDATYAKQYEEFYVGLEGSFGSKHVSPRTLTSCFLSCVVCVEGIVTKCSLVRPKVVRSVHYCPATKKTIERRYSDLTTLVAFPSSSVYPTKDEENNPLETEYGLSVYKDHQTITIQEMPEKAPAGQLPRSVDVILDDDLVDKAKPGDRVQVVGTYRCLPGKKGGYTSGTFRTVLIACNVKQMSKDAQPSFSAEDIAKIKKFSKTRSKDIFDQLAKSLAPSIHGHDYVKKAILCLLLGGVERDLENGSHIRGDINILLIGDPSVAKSQLLRYVLCTAPRAIPTTGRGSSGVGLTAAVTTDQETGERRLEAGAMVLADRGVVCIDEFDKMSDMDRTAIHEVMEQGRVTIAKAGIHARLNARCSVLAAANPVYGRYDQYKTPMENIGLQDSLLSRFDLLFIMLDQMDPEQDREISDHVLRMHRYRAPGEQDGDAMPLGSAVDILATDDPNFSQEDQQDTQIYEKHDNLLHGTKKKKEKMVSAAFMKKYIHVAKIIKPVLTQESATYIAEEYSRLRSQDSMSSDTARTSPVTARTLETLIRLATAHAKARMSKTVDLQDAEEAVELVQYAYFKKVLEKEKKRKKRSEDESETEDEEEKSQEDQEQKRKRRKTRQPDAKDGDSYDPYDFSDTEEEMPQVHTPKTADSQETKESQKVELSESRLKAFKVALLDVFREAHAQSIGMNRLTESINRDSEEPFSSVEIQAALSKMQDDNQVMVSEGIIFLI
With B1 the binding was “binds”.
